Numbering of substitutions follows the chain as printed. Results are given in words; binding and its absence hold for the method and conditions named. Some binding calls cover weakened binding; strength is not graded here.
What was measured:
[1] = molecular target: mouse complement C3 (C3d fragment, ca. 37 kDa) (mouse) (UniProt P01027); experiment: Protein-G pull-down from serum of dosed mice (2 h post dose), SDS-PAGE
[2] = molecular target: mouse complement C3 (C3d fragment, ca. 37 kDa) (mouse) (UniProt P01027); experiment: immunoprecipitation from mouse plasma, SDS-PAGE
[3] = molecular target: mouse complement C3 (C3d fragment, ca. 37 kDa) (mouse) (UniProt P01027); experiment: immunoprecipitation from mouse plasma, Protein-G beads, SDS-PAGE, MS/MS identification as mouse C3
[4] = molecular target: T1, human FGFR4 (soluble, Part B: SPR and FGFR4 ELISA) (human) (UniProt P22455); experiment: FGFR4 ELISA, FGFR4 immobilized
T1 sequence: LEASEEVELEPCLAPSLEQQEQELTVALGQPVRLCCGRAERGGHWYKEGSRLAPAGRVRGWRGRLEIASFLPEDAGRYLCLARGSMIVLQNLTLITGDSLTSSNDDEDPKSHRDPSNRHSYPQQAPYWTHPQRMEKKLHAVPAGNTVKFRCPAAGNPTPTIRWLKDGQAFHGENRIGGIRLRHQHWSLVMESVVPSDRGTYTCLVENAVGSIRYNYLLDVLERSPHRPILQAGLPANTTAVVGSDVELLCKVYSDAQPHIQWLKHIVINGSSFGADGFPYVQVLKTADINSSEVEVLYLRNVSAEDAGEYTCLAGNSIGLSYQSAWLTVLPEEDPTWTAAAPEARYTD

Amino acid sequences for entries named in this document (tags omitted). A change or cut given only in a name is not applied to a line headed by its entry.
UniProt P01027: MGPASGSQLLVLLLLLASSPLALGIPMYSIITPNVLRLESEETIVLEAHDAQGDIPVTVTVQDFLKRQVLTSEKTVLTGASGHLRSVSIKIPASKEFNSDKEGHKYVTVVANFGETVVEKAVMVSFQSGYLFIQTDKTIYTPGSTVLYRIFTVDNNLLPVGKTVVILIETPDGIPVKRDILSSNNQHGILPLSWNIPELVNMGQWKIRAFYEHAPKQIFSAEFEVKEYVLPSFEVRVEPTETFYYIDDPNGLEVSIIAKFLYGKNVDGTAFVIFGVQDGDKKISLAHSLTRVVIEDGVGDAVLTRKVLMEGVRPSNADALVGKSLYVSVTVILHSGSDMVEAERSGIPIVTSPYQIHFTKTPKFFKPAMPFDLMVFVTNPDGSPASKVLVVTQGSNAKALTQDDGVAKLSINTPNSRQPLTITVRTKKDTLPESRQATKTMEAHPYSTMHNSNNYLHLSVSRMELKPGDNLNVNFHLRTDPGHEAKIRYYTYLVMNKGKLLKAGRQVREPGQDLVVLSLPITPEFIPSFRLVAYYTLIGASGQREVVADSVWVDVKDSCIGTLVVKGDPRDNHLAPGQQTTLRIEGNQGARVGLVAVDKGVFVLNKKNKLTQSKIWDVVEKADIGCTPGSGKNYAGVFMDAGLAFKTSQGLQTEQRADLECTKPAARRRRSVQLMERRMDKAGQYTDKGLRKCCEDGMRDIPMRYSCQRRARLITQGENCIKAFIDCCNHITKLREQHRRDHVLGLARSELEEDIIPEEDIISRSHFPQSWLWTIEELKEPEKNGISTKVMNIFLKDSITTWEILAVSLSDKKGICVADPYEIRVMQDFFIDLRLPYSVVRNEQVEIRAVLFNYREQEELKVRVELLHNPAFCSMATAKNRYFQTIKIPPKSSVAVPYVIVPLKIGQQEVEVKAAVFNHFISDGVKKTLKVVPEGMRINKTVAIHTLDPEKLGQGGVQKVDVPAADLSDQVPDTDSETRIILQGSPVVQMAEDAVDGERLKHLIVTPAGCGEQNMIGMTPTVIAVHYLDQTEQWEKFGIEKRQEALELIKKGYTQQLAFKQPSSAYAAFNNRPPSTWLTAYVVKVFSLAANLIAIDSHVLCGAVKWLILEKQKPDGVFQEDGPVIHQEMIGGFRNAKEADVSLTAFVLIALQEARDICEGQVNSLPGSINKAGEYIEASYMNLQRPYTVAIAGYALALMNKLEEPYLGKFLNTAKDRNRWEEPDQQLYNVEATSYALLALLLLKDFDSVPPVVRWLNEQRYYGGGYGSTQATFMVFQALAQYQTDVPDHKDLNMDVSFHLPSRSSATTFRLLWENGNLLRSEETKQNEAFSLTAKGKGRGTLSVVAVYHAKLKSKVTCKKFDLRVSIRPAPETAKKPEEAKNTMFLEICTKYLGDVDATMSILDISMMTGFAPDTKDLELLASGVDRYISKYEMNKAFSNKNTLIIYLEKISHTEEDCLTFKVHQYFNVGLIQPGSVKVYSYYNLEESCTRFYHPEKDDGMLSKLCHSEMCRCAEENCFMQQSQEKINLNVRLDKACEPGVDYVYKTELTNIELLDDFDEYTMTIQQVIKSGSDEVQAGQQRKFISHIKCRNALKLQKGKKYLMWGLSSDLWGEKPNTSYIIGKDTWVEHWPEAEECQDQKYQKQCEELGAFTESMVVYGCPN

[5] = molecular target: T1, human FGFR4 (soluble, Part B: SPR and FGFR4 ELISA) (human); experiment: surface plasmon resonance
[6] = molecular target: mouse complement C3 (C3d fragment, ca. 37 kDa) (mouse) (UniProt P01027); experiment: immunoprecipitation from mouse plasma
[7] = molecular target: mouse complement C3 (C3d fragment, ca. 37 kDa) (mouse) (UniProt P01027); experiment: immunoprecipitation from NCR nude mouse plasma, SDS-PAGE

Measured: binding

B1: hLD1.vB (antibody, V domains shown)
VH: EVQLVESGGGLVQPGGSLRLSCAASGYTFTNHWMNWVRQAPGKGLEWVGMIHPSDSETTLDQKFKDRFTISADTSKNTAYLQMNSLRAEDTAVYYCTRGDISLFDYWGQGTLVTVSS
VL: DIQMTQSPSSLSASVGDRVTITCRTSQDISNFLNWYQQKPGKAFKILISYTSRLHSGVPSRFSGSGSGTDFTLTISSLQPEDFATYYCQQGNALPYTFGQGTKVEIK
binds: all assays above

B2: hLD1.v22 (antibody, V domains shown)
VH: B1 VH with H52L, S54V, D61E
VL: DIQMTQSPSSLSASVGDRVTITCRTSQDISNFLNWYQQKPGKAFKILISYTSRLHSGVPSRFSGSGSGTDFTLTISSLQPEDFATYYCQQGNALPYTFGQGTKVEIKR
binds: [5]

Source: patent US20160237157A1
